pEC50: −log10 of the molar value. The match of structure and compound is tentative.
Target: KCNQ 2/3 (Rattus norvegicus, UniProt O88943+O88944)
Experiment: KCNQ 2/3 activator assay by rubidium (Rb+) efflux from NGF-differentiated PC-12 cells
Settings: depolarization buffer 15 mM KCl, 10 min, compounds of formula B
Protocol: Compounds of the following formula were assayed as KCNQ 2/3 activators by measuring rhubidium release.
PC-12 cells were grown at 37° C. and 5% CO2 in DMEM/F12 Medium supplemented with 10% horse serum, 5% fetal bovine serum, 2 mM glutamine, 100 U/ml penicillin, 100 U/ml streptomycin. They were plated in poly-D-lysine-coated 96-well cell culture microplates at a density of 40,000 cells/well and differentiated with 100 ng/ml NGF-7s for 2-5 days. For the assay, the medium was aspirated and the cells were washed once with 0.2 ml in wash buffer (25 mM Hepes, pH 7.4, 150 mM NaCl, 1 mM MgCl2, 0.8 mM NaH2PO4, 2 mM CaCl2). The cells were then loaded with 0.2 ml Rb^+ loading buffer (wash buffer plus 5.4 mM […], 5 mM glucose) and incubated at 37° C. for 2 h. […] If collected samples were not immediately analyzed for Rb^+ contents by atomic absorption spectroscopy (see below), they were stored at 4° C. without any negative effects on subsequent Rb^+ analysis.
The concentration of Rb^+ in the supernatants (Rb^+ sup) and cell lysates (Rb^+Lys) was quantified using an ICR8000 flame atomic absorption spectrometer (Aurora Biomed Inc., Vancouver, B.C.) under conditions defined by the manufacturer. […] The amount of Rb^+ in the sample was measured by absorption at 780 nm using a hollow cathode lamp as light source and a PMT detector. […]

By UniProt entry, the sequences of proteins in these tests, tags left out.
UniProt O88943, whole entry: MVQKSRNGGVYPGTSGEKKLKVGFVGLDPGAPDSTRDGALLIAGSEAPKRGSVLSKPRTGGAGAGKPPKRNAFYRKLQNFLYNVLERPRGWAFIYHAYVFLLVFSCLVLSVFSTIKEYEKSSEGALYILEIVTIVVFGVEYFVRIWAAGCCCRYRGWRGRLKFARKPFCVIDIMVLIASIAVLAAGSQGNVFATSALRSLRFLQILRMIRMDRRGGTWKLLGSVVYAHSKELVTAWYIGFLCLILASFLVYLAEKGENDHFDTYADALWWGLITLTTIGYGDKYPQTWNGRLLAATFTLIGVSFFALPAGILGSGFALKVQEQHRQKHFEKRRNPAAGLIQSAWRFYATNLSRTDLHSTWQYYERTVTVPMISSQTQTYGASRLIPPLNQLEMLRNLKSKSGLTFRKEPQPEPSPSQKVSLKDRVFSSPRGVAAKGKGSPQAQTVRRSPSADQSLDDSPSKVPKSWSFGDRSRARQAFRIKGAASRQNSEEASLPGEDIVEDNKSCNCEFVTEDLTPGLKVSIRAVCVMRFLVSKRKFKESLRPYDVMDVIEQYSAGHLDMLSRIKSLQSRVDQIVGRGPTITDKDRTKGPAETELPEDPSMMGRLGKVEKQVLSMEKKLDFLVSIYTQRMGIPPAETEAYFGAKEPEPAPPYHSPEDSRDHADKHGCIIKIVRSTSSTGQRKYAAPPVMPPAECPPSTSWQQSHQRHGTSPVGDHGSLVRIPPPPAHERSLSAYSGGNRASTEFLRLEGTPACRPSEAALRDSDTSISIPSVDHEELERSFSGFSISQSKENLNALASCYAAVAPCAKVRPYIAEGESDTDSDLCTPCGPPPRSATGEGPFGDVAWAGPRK
UniProt O88944, whole entry: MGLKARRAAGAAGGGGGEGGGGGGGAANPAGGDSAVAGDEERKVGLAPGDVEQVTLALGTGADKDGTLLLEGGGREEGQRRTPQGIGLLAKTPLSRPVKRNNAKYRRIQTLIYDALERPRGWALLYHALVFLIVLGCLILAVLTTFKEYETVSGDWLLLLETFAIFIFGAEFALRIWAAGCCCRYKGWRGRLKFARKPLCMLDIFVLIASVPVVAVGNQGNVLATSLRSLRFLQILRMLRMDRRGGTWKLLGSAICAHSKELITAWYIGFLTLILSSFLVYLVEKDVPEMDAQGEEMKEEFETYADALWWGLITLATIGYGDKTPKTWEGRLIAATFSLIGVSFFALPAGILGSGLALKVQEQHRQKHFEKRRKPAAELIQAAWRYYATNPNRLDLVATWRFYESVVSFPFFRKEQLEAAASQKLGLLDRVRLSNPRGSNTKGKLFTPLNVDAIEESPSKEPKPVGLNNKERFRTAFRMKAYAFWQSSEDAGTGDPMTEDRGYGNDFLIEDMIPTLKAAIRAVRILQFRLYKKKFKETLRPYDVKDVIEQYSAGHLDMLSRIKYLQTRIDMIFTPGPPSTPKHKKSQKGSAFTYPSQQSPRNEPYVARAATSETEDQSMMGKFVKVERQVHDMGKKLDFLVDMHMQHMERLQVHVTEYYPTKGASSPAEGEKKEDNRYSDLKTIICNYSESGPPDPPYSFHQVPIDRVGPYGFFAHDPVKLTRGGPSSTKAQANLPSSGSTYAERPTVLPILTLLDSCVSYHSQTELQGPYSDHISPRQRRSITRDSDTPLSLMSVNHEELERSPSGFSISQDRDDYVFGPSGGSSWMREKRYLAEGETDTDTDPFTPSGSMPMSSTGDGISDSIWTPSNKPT

`CCOC(=O)Nc1ccc(OCc2ccccc2C(F)(F)F)cc1N` showed a pEC50 of less than 4.52.

From patent US8722929B2, “N-[2-amino-4-(phenylmethoxy)phenyl] amides and related compounds as potassium channel modulators” (Valeant Pharmaceuticals International, priority 2006, dated 2014)
